Key:
[1] = Photosensitivity test: minimum exposure amount to form the resist pattern in an exemplary photoresist; details: 20 μm photoresist coating, 1 part by mass photoinitiator, line i exposure, 10 μm line pattern, lower value = higher photosensitivity
[2] = Acid production rate test (UV irradiation of acetonitrile solution, KOH titration); details: 0.02 mmol/g acetonitrile solution, 200 mj/cm^2 cumulative energy at 0.8 mw/cm^2, ultraviolet lamp FL10BL, titrated with 0.05N KOH in ethanol

Row | Structure (SMILES) | Minimum exposure amount ([1]; Table 3) | Acid production rate ([2]; Table 3) | Minimum exposure amount ([1]; Table 4) | Acid production rate ([2]; Table 4)
1 | COc1ccc([S+](c2ccc(C)c(F)c2)c2ccc(C)c(F)c2)cc1 [Compound A-1] | 120 mj/cm^2 | 85% | – | –
2 | Cc1ccc(-[s+]2c3ccccc3c(=O)c3cc(C(C)C)ccc32)cc1F (centres unmarked) [Compound A-2] | 140 mj/cm^2 | 81% | – | –
3 | Cc1ccc([S+](c2ccc(C)c(F)c2)c2ccc(C)c(F)c2)cc1 [Compound A-3] | 150 mj/cm^2 | 80% | – | –
4 | Cc1ccc([S+](c2ccccc2)c2ccccc2)cc1F [Compound A-4] | 180 mj/cm^2 | 72% | – | –
5 | Fc1ccc([S+](c2ccccc2)c2ccccc2)cc1F [Compound A-5] | 200 mj/cm^2 | 68% | – | –
6 | Cc1ccc([S+](c2ccccc2)c2ccccc2)cc1C(F)(F)F [Compound A-6] | 160 mj/cm^2 | 78% | – | –
7 | CC(=O)c1ccc([S+](c2ccccc2)c2ccc(C)c(C#N)c2)cc1 (centres unmarked) [Compound A-7] | 200 mj/cm^2 | 65% | – | –
8 | COc1ccc([S+](c2ccc(C(C)=O)cc2)c2ccc(C(C)=O)cc2)cc1F [Compound A-8] | 170 mj/cm^2 | 75% | – | –
9 | Cc1ccc([S+](c2ccc(OCCO)cc2)c2ccc(C)c(F)c2)cc1F [Compound A-9] | 100 mj/cm^2 | 86% | – | –
10 | Cc1ccc([SH](c2ccc(C)c(F)c2)c2ccc(C)c(F)c2)cc1F [Compound A-10] | 160 mj/cm^2 | 80% | – | –
11 | Cc1ccc([S+](c2ccc(C)c(F)c2)c2ccc(C)c(F)c2)cc1 [Compound A-11] | 170 mj/cm^2 | 75% | – | –
12 | Cc1ccc([S+](c2ccc(Sc3ccccc3)cc2)c2ccc(C)c(F)c2)cc1F [Compound A-12] | 110 mj/cm^2 | 88% | – | –
13 | Cc1ccc([S+](c2ccc(Oc3ccccc3)cc2)c2ccc(C)c(F)c2)cc1F [Compound A-13] | 180 mj/cm^2 | 72% | – | –
14 | Cc1ccc([S+](c2ccc(Cc3ccccc3)cc2)c2ccc(C)c(F)c2)cc1F [Compound A-14] | 110 mj/cm^2 | 85% | – | –
15 | Cc1ccc([S+](c2ccc(-c3ccccc3)cc2)c2ccc(C)c(F)c2)cc1F [Compound A-15] | 120 mj/cm^2 | 84% | – | –
16 | CC(=O)c1cc([SH](c2ccc(Sc3ccccc3)cc2)c2ccc(C)c(C(C)=O)c2)ccc1C [Compound A-16] | 120 mj/cm^2 | 82% | – | –
17 | Cc1ccc([S+](c2ccc(C)c(C#N)c2)c2ccc(C)c(C#N)c2)cc1C [Compound A-18] | 110 mj/cm^2 | 85% | – | –
18 | Cc1ccc([S+](c2ccc(Sc3ccccc3)cc2)c2ccc(C)c(C(=O)Cl)c2)cc1C(=O)Cl [Compound A-19] | 120 mj/cm^2 | 82% | – | –
19 | Fc1ccc([S+](c2ccccc2)c2ccc(Sc3ccccc3)cc2)cc1F (centres unmarked) [Compound A-20] | 170 mj/cm^2 | 75% | – | –
20 | Cc1ccc([S+](c2ccccc2)c2ccc(-c3ccccc3)cc2)cc1F (centres unmarked) [Compound A-21] | 200 mj/cm^2 | 70% | – | –
21 | Cc1ccc([S+](c2ccc(C)c(F)c2)c2ccc3c(c2)Cc2ccccc2-3)cc1F [Compound A-22] | 160 mj/cm^2 | 78% | – | –
22 | Cc1ccc([S+](c2ccc(C)c(F)c2)c2ccc3oc4ccccc4c3c2)cc1F [Compound A-24] | 120 mj/cm^2 | 83% | – | –
23 | Cc1ccc([S+](c2ccc(Sc3ccccc3)cc2)c2ccc(C)c([N+](=O)[O-])c2)cc1[N+](=O)[O-] [Compound A-27] | 170 mj/cm^2 | 78% | – | –
24 | CCc1ccc([S+](c2ccc(OC)cc2)c2ccc(CC)c(F)c2)cc1F [Compound A-28] | 120 mj/cm^2 | 85% | – | –
25 | Cc1ccc([SH](c2ccc(Sc3ccc(C(=O)c4ccccc4)cc3)cc2)c2ccc(C)c(F)c2)cc1F [Compound A-30] | 110 mj/cm^2 | 83% | – | –

Row | Structure (SMILES) | Minimum exposure amount ([1]; Table 3) | Acid production rate ([2]; Table 3) | Minimum exposure amount ([1]; Table 4) | Acid production rate ([2]; Table 4)
26 | CCc1ccc([S+](c2ccc(OC)cc2)c2ccc(CC)c(C(F)(F)F)c2)cc1C(F)(F)F [Compound A-31] | 180 mj/cm^2 | 76% | – | –
27 | CCc1ccc([S+](c2ccc(OCCO)cc2)c2ccc(CC)c([N+](=O)[O-])c2)cc1[N+](=O)[O-] [Compound A-32] | 150 mj/cm^2 | 80% | – | –
28 | COc1ccc([S+](c2ccc(Sc3ccccc3)cc2)c2ccc(OC)c(F)c2)cc1F [Compound A-35] | 140 mj/cm^2 | 81% | – | –
29 | Fc1cc([S+](c2ccc(Sc3ccccc3)cc2)c2ccc(Cc3ccccc3)c(F)c2)ccc1Cc1ccccc1 [Compound A-36] | 110 mj/cm^2 | 83% | – | –
30 | Cc1ccc([S+](c2ccc(/C=C/c3ccccc3)cc2)c2ccc(C)c(F)c2)cc1F [Compound A-37] | 110 mj/cm^2 | 85% | – | –
31 | Cc1ccc([S+](c2ccccc2)c2ccc(/C=C/c3ccccc3)cc2)cc1F (centres unmarked) [Compound A-38] | 180 mj/cm^2 | 74% | – | –
32 | Fc1cccc([S+](c2ccccc2)c2ccccc2)c1 [Compound B-1, reference compound] | 200 mj/cm^2 | 70% | – | –
33 | Cc1ccc([S+](c2ccccc2)c2ccccc2)cc1 [Compound B-2, reference compound] | More than 300 mj/cm^2 | 43% | – | –
34 | Cc1ccc([S+](c2ccc(Sc3ccc([S+](c4ccc(C)c(F)c4)c4ccc(C)c(F)c4)cc3)cc2)c2ccc(C)c(F)c2)cc1F [Compound C-1] | – | – | 100 mj/cm^2 | 87%
35 | Cc1ccc([S+](c2ccc(Sc3ccc([S+](c4ccc(C)c(C(F)(F)F)c4)c4ccc(C)c(C(F)(F)F)c4)cc3)cc2)c2ccc(C)c(C(F)(F)F)c2)cc1C(F)(F)F [Compound C-2] | – | – | 110 mj/cm^2 | 84%
36 | Cc1ccc([S+](c2ccc(Sc3ccc([S+](c4ccc(C)c([N+](=O)[O-])c4)c4ccc(C)c([N+](=O)[O-])c4)cc3)cc2)c2ccc(C)c([N+](=O)[O-])c2)cc1[N+](=O)[O-] [Compound C-3] | – | – | 90 mj/cm^2 | 89%
37 | Cc1ccc([S+](c2ccc(Sc3ccc([S+](c4ccc(C)c(C#N)c4)c4ccc(C)c(C#N)c4)cc3)cc2)c2ccc(C)c(C#N)c2)cc1C#N [Compound C-4] | – | – | 120 mj/cm^2 | 82%
38 | CCc1ccc([S+](c2ccc(Sc3ccc([S+](c4ccc(CC)c(F)c4)c4ccc(CC)c(F)c4)cc3)cc2)c2ccc(CC)c(F)c2)cc1F [Compound C-5] | – | – | 80 mj/cm^2 | 92%
39 | CCc1ccc([S+](c2ccc(Sc3ccc([S+](c4ccc(CC)c(C(F)(F)F)c4)c4ccc(CC)c(C(F)(F)F)c4)cc3)cc2)c2ccc(CC)c(C(F)(F)F)c2)cc1C(F)(F)F [Compound C-6] | – | – | 110 mj/cm^2 | 84%
40 | Cc1ccc([S+](c2ccc(/C=C/c3ccc([S+](c4ccc(C)c(F)c4)c4ccc(C)c(F)c4)cc3)cc2)c2ccc(C)c(F)c2)cc1F [Compound C-7] | – | – | 120 mj/cm^2 | 82%
41 | Cc1ccc([S+](c2ccc(Oc3ccc([S+](c4ccc(C)c(F)c4)c4ccc(C)c(F)c4)cc3)cc2)c2ccc(C)c(F)c2)cc1F [Compound C-8] | – | – | 130 mj/cm^2 | 80%
42 | Cc1ccc([S+](c2ccc(Cc3ccc([S+](c4ccc(C)c([N+](=O)[O-])c4)c4ccc(C)c([N+](=O)[O-])c4)cc3)cc2)c2ccc(C)c([N+](=O)[O-])c2)cc1[N+](=O)[O-] [Compound C-9] | – | – | 120 mj/cm^2 | 82%
43 | Cc1ccc([S+](c2ccc(-c3ccc([S+](c4ccc(C)c(F)c4)c4ccc(C)c(F)c4)cc3)cc2)c2ccc(C)c(F)c2)cc1F [Compound C-10] | – | – | 140 mj/cm^2 | 79%
44 | Cc1ccc([S+](c2ccc(-c3ccc([S+](c4ccc(C)c(C#N)c4)c4ccc(C)c(C#N)c4)cc3)cc2)c2ccc(C)c(C#N)c2)cc1C#N [Compound C-11] | – | – | 140 mj/cm^2 | 78%
45 | Cc1ccc([S+](c2ccc(Sc3ccc([S+](c4ccc(C)c(F)c4)c4ccc(C)c(F)c4)cc3C)c(C)c2)c2ccc(C)c(F)c2)cc1F [Compound C-12] | – | – | 110 mj/cm^2 | 84%
46 | Cc1ccc([S+](c2ccc(Sc3ccc([S+](c4ccc(C)c(C#N)c4)c4ccc(C)c(C#N)c4)cc3C)c(C)c2)c2ccc(C)c(C#N)c2)cc1C#N [Compound C-13] | – | – | 130 mj/cm^2 | 80%
47 | Fc1cc([S+](c2ccc(Sc3ccc([S+](c4ccc(Cc5ccccc5)c(F)c4)c4ccc(Cc5ccccc5)c(F)c4)cc3)cc2)c2ccc(Cc3ccccc3)c(F)c2)ccc1Cc1ccccc1 [Compound C-16] | – | – | 150 mj/cm^2 | 77%
48 | Cc1ccc([S+](c2ccccc2)c2ccc(Sc3ccc([S+](c4ccccc4)c4ccc(C)c(F)c4)cc3)cc2)cc1F (centres unmarked) [Compound C-17] | – | – | 180 mj/cm^2 | 74%
49 | COc1ccc([S+](c2ccccc2)c2ccc(Sc3ccc([S+](c4ccccc4)c4ccc(OC)c(F)c4)cc3)cc2)cc1F (centres unmarked) [Compound C-18] | – | – | 190 mj/cm^2 | 72%

— patent US11746085B2, “Triphenylsulfonium salt compound, and uses thereof” (Changzhou Tronly Advanced Electronic Materials Co., Ltd., priority 2018, dated 2023)
